Laboratory results: PubChem BioAssay AID652243 (Drosophila RNAi Screening Center, 2013)

Screen: 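Fly regulators of androgen-dependent reporter output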 (primary screen)
Cells: Drosophila S2R+ cells
Reagents: long dsRNA against Drosophila genes
Time to read-out: 72 h (48 h, then 24 h hormone)
Treatment: synthetic androgen R1881 at 10 nM for 24 h
Detection: 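Firefly light from an androgen-responsive reporter and Renilla control light per well, raw and unnormalised, for each of two replicates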
Scale: firefly reporter light: higher = more light from androgen-responsive reporter; Renilla control light: higher = more constitutive control signal (cell number, transfection)
Active means: 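Hit when the log firefly-to-Renilla ratio dropped or increased by a fixed fold versus the mean of GFP or LacZ controls across duplicate plates; lowering cut given as 1.5 and as 3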
Calls: active = hit: reporter lowered or raised; inactive = no hit
In all, the deposit lists about 24,000 reagents; this is a random part of those that have a named target and a result. In the full data, 246 (1%) were called active. 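Plates not normalised; calls are printed but the firefly/Renilla ratio behind them is not deposited; fold cut for lowering reported inconsistently.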 Raw values are not corrected between plates. The numbers tell different reagents against one gene apart. No sequences are given here. The record does not give: the amount of reagent.

Depletion of CG11109 resulted in: firefly reporter light, replicate 1 = 52803; firefly reporter light, replicate 2 = 38643; Renilla control light, replicate 1 = 4.43e5; Renilla control light, replicate 2 = 2.18e5; inactive. With knock-down of Ilp1, the record shows firefly reporter light, replicate 1 = 3.19e5; firefly reporter light, replicate 2 = 2.65e5; Renilla control light, replicate 1 = 2.43e6; Renilla control light, replicate 2 = 1.97e6; inactive. Knock-down of Ephrin resulted in: firefly reporter light, replicate 1 = 2.35e5; firefly reporter light, replicate 2 = 1.97e5; Renilla control light, replicate 1 = 2.26e6; Renilla control light, replicate 2 = 1.87e6; inactive. Against CG34117, the entry reads firefly reporter light, replicate 1 = 4.68e5; firefly reporter light, replicate 2 = 4.82e5; Renilla control light, replicate 1 = 1.37e6; Renilla control light, replicate 2 = 1.22e6; inactive. For CG31806 #1, the values are firefly reporter light, replicate 1 = 1.07e5; firefly reporter light, replicate 2 = 91872; Renilla control light, replicate 1 = 1.76e6; Renilla control light, replicate 2 = 1.61e6; inactive. CG31806 #2 scored firefly reporter light, replicate 1 = 2.50e5; firefly reporter light, replicate 2 = 2.81e5; Renilla control light, replicate 1 = 1.01e6; Renilla control light, replicate 2 = 1.14e6; inactive.

Ctps #1 gave firefly reporter light, replicate 1 = 1.09e6; firefly reporter light, replicate 2 = 7.60e5; Renilla control light, replicate 1 = 5.00e5; Renilla control light, replicate 2 = 2.62e5; inactive. With knock-down of Ctps #2, the screen gave firefly reporter light, replicate 1 = 9.35e5; firefly reporter light, replicate 2 = 7.52e5; Renilla control light, replicate 1 = 1.35e6; Renilla control light, replicate 2 = 1.17e6; inactive. Knock-down of Ctps #3 gave: firefly reporter light, replicate 1 = 1.73e5; firefly reporter light, replicate 2 = 1.50e5; Renilla control light, replicate 1 = 1.74e6; Renilla control light, replicate 2 = 1.75e6; inactive. Knock-down of Smn resulted in: firefly reporter light, replicate 1 = 38956; firefly reporter light, replicate 2 = 44826; Renilla control light, replicate 1 = 4.21e5; Renilla control light, replicate 2 = 4.21e5; inactive. Against CG7110 #1 the deposit lists firefly reporter light, replicate 1 = 6.14e5; firefly reporter light, replicate 2 = 6.05e5; Renilla control light, replicate 1 = 1.49e6; Renilla control light, replicate 2 = 1.89e6; inactive. Against CG7110 #2, the values are firefly reporter light, replicate 1 = 2.44e5; firefly reporter light, replicate 2 = 2.29e5; Renilla control light, replicate 1 = 1.53e6; Renilla control light, replicate 2 = 1.70e6; inactive.

A few values from above.
Under “Renilla control light, replicate 2”, Smn is entered as 4.21e5
Under “firefly reporter light, replicate 1”, Ctps #3 is entered as 1.73e5
